The source of these data is doi:10.1101/2022.11.14.515780.

What all share (experiment): co-IP
Test [1] addresses RFP-Fbp17 (Dictyostelium discoideum) (UniProt Q55AN3).
Test [2] deals with RFP-Fbp17^ΔSH3 (Dictyostelium discoideum).
Test [3] concerns the target RFP-Fbp17 (Dictyostelium discoideum) (UniProt Q55AN3). The source holds these as a separate data set.

Where two headings read alike, the source gives them in different places. These are yes or no findings as the source states them, for the method shown. In cells and extracts the contact can be indirect. For some of these results: Binding can be weak; no strength is given. Where a sequence is shown, tags or fusion partners need not be part of it.

B1: GxcM-GFP (protein, UniProt Q1ZXN6 1-1145)
chain: MKIKFFRYVLTIDEQSEENKKEVAIDQQVVNDTNSDISSNRDSLNIEDEQQKESSSSLSSSSNNTTTTTATTTSPTTTATTTTTTATTSTTDESETTNSTTPTSATSTPDSMITPTKSKGSSNKLNSKEDKNLKKQKQKEEKERLEMEKQKQKEEKEQKIKDEKERLEMEKQKQKEEKEQKIKDEKERLEMEKQKQKEEKEKLKEEKEKSKREQKEKEKEKEDITEQKDKDSTPTKVQLTREPSVISKIFSVKKSNSLIIERSTSPVQIDSSPSKSFIESNNNNNSSSNNLANNTTDRNSISSEDANIIQNNTTDSNIENNETTNNNNNSNGSRTSTPTPINSEGIEKSISSSDLSNITTTTTTTGSGGLNTSPSTENINVGGGTDSGTTTTTTNNNNNNSTNNLVGDKTELSSGSSVISSPNGGTKREVVIKVTRAFAQVIHQNVMKEEGENKMRNMVINEIINTEKDYIADLNIIVNFILTPLKESKIIPDKDISIIFSNIQLLLNVNKELLSDLLQKAPDEKPNHTVGTCFIYFFKYLKIYSGYCANQTISADHIARCSKKIPSFKQFLEEKQASTECRQCNLESFLIKPVQRLCKYPLLLRELIKNSCEGHPDLANLEKAYTEIQEVVLSVNESKRKAEIHQKMYKIHEKLQAPEKFVFFTPTRYLIREATFGELTEEKDKISGRMHYYLFNDIIMRTQKDKKSIRLETLFIIASTNVDGEENRGSSFCNTFEISQPGTTGRRFTLVADSYEQKMEWFTDLDELIKPHREEYSRNADKVLDHIKRSTIATTNPSSNGISSDSPKSLHRTQTAAGALQQQQQQSKPVHAIPSKPLPPPPPKSKSSATITPTTTTTNTTVVIDEPPTIVDSASTPLPSQTPIAKPRPTSTIKKTFITNSNQTSSPQQQQPATTEQAPPIPSRQQRPLSVTPTTTPTPSQPVITQQNENNNTVPTKTTRPLPKPGSFTAPAPVSTLINNNNTSNSSTTTTTTTTTNQPAKPIAFPSKLSNLKQAAPNNSARSASTFVPSTSHSSFVPSSVKNNTNNNNITKDDLSLPSSANNNNNNSNTDFTTPPTGKPRVMPLPPRGGSAVNVAVNNNNNINNNSPVPFPPTTNTTTPTATPPHSPQTSDLNLTKKPIIPPRK
For the molecule B1, the binding entry in test [1] was “binds”; in test [2], “no binding”; in test [3], “binds”.

B2: GxcM^4A-GFP (protein, UniProt Q1ZXN6 1-1145)
chain: MKIKFFRYVLTIDEQSEENKKEVAIDQQVVNDTNSDISSNRDSLNIEDEQQKESSSSLSSSSNNTTTTTATTTSPTTTATTTTTTATTSTTDESETTNSTTPTSATSTPDSMITPTKSKGSSNKLNSKEDKNLKKQKQKEEKERLEMEKQKQKEEKEQKIKDEKERLEMEKQKQKEEKEQKIKDEKERLEMEKQKQKEEKEKLKEEKEKSKREQKEKEKEKEDITEQKDKDSTPTKVQLTREPSVISKIFSVKKSNSLIIERSTSPVQIDSSPSKSFIESNNNNNSSSNNLANNTTDRNSISSEDANIIQNNTTDSNIENNETTNNNNNSNGSRTSTPTPINSEGIEKSISSSDLSNITTTTTTTGSGGLNTSPSTENINVGGGTDSGTTTTTTNNNNNNSTNNLVGDKTELSSGSSVISSPNGGTKREVVIKVTRAFAQVIHQNVMKEEGENKMRNMVINEIINTEKDYIADLNIIVNFILTPLKESKIIPDKDISIIFSNIQLLLNVNKELLSDLLQKAPDEKPNHTVGTCFIYFFKYLKIYSGYCANQTISADHIARCSKKIPSFKQFLEEKQASTECRQCNLESFLIKAAAALCKYPLLLRELIKNSCEGHPDLANLEKAYTEIQEVVLSVNESKRKAEIHQKMYKIHEKLQAPEKFVFFTPTRYLIREATFGELTEEKDKISGRMHYYLFNDIIMRTQKDKKSIRLETLFIIASTNVDGEENRGSSFCNTFEISQPGTTGRRFTLVADSYEQKMEWFTDLDELIKPHREEYSRNADKVLDHIKRSTIATTNPSSNGISSDSPKSLHRTQTAAGALQQQQQQSKPVHAIPSKPLPPPPPKSKSSATITPTTTTTNTTVVIDEPPTIVDSASTPLPSQTPIAKPRPTSTIKKTFITNSNQTSSPQQQQPATTEQAPPIPSRQQRPLSVTPTTTPTPSQPVITQQNENNNTVPTKTTRPLPKPGSFTAPAPVSTLINNNNTSNSSTTTTTTTTTNQPAKPIAFPSKLSNLKQAAPNNSARSASTFVPSTSHSSFVPSSVKNNTNNNNITKDDLSLPSSANNNNNNSNTDFTTPPTGKPRVMPLPPRGGSAVNVAVNNNNNINNNSPVPFPPTTNTTTPTATPPHSPQTSDLNLTKKPIIPPRK
For the molecule B2, in test [1], the binding entry is given as “binds”.

B3: GxcM^N790-GFP (domain or fragment, UniProt Q1ZXN6 1-790)
chain: MKIKFFRYVLTIDEQSEENKKEVAIDQQVVNDTNSDISSNRDSLNIEDEQQKESSSSLSSSSNNTTTTTATTTSPTTTATTTTTTATTSTTDESETTNSTTPTSATSTPDSMITPTKSKGSSNKLNSKEDKNLKKQKQKEEKERLEMEKQKQKEEKEQKIKDEKERLEMEKQKQKEEKEQKIKDEKERLEMEKQKQKEEKEKLKEEKEKSKREQKEKEKEKEDITEQKDKDSTPTKVQLTREPSVISKIFSVKKSNSLIIERSTSPVQIDSSPSKSFIESNNNNNSSSNNLANNTTDRNSISSEDANIIQNNTTDSNIENNETTNNNNNSNGSRTSTPTPINSEGIEKSISSSDLSNITTTTTTTGSGGLNTSPSTENINVGGGTDSGTTTTTTNNNNNNSTNNLVGDKTELSSGSSVISSPNGGTKREVVIKVTRAFAQVIHQNVMKEEGENKMRNMVINEIINTEKDYIADLNIIVNFILTPLKESKIIPDKDISIIFSNIQLLLNVNKELLSDLLQKAPDEKPNHTVGTCFIYFFKYLKIYSGYCANQTISADHIARCSKKIPSFKQFLEEKQASTECRQCNLESFLIKPVQRLCKYPLLLRELIKNSCEGHPDLANLEKAYTEIQEVVLSVNESKRKAEIHQKMYKIHEKLQAPEKFVFFTPTRYLIREATFGELTEEKDKISGRMHYYLFNDIIMRTQKDKKSIRLETLFIIASTNVDGEENRGSSFCNTFEISQPGTTGRRFTLVADSYEQKMEWFTDLDELIKPHREEYSRNADKVLDHIKRS
On to B3, for which, in test [1], the binding entry is listed as “no binding”.

B4: GFP-WASP (protein, UniProt Q9GSG9 1-399)
chain: MGSPTISDQEKSQVAFIAGSSSDIHSTTVARLYEGRQGRWEFMAVGIVSVVSNRVDKTNYIKVFDLKANYRIIFEQEIYDTFEFQKQRDFFFAFEGDSCVYGLSFADVTEAAEFYGQLLNCKQGNIGKTAAINPNTSSTKITASTPAPKVEKKKEKKGFMSKFFSSEEKDLEISAPTNFKHESHIGWDPENGFDIKNIPPDWRKLFQSAGIKKSELKNAETAQFIVNIIGEQMVGGSAPPPTQPGRSAPPAPPSSNQPGRSAPPPPPSVGKSAPPPPPPSHKTPAAPPSGGGAPPPPPPPPPPSSGPPPPPPPMASAPPSSGGGGASGGGRNDLLASIRSGASLKAVDKTNPLPDIQSLGNEGSRSLADTLAAAMANRRGGMREDDEEDDDDDDEWSDY
In the case of B4, the binding result is reported as “binds” in test [1] and “no binding” in test [2].
